Source: patent US20230159620A1, “COMPOSITIONS AND METHODS OF TREATMENT FOR VASCULAR DISEASES AND THROMBOSIS” (Washington University, priority 2021, published 2023)
These are yes or no findings as the source states them, for the method shown. In cells and extracts the contact can be indirect. Some entries that bind do so weakly or less than the wild type. For part of these data: Where a sequence is shown, tags or fusion partners need not be part of it.

Protein sequences, listed by entry. Tags and fused reporters are not part of them. Residues count along the entry.
UniProt P11276, residues 33-2477: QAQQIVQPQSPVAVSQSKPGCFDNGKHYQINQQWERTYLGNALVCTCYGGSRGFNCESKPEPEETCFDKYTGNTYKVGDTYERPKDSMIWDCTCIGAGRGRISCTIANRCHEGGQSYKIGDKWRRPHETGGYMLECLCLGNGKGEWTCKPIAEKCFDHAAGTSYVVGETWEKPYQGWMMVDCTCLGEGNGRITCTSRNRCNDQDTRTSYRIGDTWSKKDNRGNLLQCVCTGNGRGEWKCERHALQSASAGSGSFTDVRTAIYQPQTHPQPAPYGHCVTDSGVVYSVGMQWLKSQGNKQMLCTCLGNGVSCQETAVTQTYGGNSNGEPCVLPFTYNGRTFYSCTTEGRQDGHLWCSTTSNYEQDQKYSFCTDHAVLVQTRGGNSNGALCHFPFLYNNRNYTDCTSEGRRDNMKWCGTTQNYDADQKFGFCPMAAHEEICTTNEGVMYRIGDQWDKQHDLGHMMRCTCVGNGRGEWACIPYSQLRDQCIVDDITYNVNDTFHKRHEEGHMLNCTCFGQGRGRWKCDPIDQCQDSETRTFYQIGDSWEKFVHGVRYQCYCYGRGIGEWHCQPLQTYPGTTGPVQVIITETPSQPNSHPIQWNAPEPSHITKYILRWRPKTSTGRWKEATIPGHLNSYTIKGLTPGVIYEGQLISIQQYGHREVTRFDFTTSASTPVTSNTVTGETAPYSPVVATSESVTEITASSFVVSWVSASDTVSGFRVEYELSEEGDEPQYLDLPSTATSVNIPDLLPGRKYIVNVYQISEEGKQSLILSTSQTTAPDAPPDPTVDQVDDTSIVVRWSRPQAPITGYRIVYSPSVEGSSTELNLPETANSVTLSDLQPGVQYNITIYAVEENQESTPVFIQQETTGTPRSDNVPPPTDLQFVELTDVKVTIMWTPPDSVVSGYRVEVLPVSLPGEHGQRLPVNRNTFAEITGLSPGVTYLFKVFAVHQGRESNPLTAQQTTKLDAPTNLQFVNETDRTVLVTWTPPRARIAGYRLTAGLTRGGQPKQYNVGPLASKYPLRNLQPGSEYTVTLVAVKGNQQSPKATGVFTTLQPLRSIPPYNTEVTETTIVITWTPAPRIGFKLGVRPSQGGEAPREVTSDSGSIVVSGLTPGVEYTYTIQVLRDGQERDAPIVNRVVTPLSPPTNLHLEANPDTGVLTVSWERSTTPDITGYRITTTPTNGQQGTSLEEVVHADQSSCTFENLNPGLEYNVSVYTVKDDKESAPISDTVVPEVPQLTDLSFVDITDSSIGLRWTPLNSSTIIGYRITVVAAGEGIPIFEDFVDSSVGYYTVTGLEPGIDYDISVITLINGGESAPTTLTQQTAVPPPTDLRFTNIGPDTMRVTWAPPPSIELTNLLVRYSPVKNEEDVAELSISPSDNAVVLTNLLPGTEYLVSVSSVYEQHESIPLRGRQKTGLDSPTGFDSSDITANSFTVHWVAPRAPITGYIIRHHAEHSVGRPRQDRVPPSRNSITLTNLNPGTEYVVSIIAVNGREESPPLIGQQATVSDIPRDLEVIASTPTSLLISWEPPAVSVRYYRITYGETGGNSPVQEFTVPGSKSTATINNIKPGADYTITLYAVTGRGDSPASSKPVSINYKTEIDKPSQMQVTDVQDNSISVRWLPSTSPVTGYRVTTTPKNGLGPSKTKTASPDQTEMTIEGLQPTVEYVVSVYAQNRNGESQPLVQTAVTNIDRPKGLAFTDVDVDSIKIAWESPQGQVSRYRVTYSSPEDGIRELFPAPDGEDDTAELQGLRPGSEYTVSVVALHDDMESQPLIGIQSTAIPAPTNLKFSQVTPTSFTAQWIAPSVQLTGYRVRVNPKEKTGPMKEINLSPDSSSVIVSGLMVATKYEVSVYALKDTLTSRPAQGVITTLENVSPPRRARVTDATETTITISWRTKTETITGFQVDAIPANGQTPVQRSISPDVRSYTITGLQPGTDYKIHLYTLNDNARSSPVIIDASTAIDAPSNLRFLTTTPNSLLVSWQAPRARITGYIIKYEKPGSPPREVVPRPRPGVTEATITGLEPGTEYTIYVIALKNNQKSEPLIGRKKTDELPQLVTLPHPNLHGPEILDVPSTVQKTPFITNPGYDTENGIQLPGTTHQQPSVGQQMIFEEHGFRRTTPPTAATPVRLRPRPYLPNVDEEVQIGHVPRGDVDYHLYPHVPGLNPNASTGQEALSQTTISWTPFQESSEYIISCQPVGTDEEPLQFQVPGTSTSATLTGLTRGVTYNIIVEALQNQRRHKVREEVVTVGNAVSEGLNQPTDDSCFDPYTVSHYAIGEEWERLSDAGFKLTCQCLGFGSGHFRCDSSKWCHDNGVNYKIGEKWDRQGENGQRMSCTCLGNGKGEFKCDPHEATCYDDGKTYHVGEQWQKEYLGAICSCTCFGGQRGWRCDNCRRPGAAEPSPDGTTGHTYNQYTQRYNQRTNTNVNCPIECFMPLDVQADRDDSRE
UniProt A2AVA0, residues 18-3567: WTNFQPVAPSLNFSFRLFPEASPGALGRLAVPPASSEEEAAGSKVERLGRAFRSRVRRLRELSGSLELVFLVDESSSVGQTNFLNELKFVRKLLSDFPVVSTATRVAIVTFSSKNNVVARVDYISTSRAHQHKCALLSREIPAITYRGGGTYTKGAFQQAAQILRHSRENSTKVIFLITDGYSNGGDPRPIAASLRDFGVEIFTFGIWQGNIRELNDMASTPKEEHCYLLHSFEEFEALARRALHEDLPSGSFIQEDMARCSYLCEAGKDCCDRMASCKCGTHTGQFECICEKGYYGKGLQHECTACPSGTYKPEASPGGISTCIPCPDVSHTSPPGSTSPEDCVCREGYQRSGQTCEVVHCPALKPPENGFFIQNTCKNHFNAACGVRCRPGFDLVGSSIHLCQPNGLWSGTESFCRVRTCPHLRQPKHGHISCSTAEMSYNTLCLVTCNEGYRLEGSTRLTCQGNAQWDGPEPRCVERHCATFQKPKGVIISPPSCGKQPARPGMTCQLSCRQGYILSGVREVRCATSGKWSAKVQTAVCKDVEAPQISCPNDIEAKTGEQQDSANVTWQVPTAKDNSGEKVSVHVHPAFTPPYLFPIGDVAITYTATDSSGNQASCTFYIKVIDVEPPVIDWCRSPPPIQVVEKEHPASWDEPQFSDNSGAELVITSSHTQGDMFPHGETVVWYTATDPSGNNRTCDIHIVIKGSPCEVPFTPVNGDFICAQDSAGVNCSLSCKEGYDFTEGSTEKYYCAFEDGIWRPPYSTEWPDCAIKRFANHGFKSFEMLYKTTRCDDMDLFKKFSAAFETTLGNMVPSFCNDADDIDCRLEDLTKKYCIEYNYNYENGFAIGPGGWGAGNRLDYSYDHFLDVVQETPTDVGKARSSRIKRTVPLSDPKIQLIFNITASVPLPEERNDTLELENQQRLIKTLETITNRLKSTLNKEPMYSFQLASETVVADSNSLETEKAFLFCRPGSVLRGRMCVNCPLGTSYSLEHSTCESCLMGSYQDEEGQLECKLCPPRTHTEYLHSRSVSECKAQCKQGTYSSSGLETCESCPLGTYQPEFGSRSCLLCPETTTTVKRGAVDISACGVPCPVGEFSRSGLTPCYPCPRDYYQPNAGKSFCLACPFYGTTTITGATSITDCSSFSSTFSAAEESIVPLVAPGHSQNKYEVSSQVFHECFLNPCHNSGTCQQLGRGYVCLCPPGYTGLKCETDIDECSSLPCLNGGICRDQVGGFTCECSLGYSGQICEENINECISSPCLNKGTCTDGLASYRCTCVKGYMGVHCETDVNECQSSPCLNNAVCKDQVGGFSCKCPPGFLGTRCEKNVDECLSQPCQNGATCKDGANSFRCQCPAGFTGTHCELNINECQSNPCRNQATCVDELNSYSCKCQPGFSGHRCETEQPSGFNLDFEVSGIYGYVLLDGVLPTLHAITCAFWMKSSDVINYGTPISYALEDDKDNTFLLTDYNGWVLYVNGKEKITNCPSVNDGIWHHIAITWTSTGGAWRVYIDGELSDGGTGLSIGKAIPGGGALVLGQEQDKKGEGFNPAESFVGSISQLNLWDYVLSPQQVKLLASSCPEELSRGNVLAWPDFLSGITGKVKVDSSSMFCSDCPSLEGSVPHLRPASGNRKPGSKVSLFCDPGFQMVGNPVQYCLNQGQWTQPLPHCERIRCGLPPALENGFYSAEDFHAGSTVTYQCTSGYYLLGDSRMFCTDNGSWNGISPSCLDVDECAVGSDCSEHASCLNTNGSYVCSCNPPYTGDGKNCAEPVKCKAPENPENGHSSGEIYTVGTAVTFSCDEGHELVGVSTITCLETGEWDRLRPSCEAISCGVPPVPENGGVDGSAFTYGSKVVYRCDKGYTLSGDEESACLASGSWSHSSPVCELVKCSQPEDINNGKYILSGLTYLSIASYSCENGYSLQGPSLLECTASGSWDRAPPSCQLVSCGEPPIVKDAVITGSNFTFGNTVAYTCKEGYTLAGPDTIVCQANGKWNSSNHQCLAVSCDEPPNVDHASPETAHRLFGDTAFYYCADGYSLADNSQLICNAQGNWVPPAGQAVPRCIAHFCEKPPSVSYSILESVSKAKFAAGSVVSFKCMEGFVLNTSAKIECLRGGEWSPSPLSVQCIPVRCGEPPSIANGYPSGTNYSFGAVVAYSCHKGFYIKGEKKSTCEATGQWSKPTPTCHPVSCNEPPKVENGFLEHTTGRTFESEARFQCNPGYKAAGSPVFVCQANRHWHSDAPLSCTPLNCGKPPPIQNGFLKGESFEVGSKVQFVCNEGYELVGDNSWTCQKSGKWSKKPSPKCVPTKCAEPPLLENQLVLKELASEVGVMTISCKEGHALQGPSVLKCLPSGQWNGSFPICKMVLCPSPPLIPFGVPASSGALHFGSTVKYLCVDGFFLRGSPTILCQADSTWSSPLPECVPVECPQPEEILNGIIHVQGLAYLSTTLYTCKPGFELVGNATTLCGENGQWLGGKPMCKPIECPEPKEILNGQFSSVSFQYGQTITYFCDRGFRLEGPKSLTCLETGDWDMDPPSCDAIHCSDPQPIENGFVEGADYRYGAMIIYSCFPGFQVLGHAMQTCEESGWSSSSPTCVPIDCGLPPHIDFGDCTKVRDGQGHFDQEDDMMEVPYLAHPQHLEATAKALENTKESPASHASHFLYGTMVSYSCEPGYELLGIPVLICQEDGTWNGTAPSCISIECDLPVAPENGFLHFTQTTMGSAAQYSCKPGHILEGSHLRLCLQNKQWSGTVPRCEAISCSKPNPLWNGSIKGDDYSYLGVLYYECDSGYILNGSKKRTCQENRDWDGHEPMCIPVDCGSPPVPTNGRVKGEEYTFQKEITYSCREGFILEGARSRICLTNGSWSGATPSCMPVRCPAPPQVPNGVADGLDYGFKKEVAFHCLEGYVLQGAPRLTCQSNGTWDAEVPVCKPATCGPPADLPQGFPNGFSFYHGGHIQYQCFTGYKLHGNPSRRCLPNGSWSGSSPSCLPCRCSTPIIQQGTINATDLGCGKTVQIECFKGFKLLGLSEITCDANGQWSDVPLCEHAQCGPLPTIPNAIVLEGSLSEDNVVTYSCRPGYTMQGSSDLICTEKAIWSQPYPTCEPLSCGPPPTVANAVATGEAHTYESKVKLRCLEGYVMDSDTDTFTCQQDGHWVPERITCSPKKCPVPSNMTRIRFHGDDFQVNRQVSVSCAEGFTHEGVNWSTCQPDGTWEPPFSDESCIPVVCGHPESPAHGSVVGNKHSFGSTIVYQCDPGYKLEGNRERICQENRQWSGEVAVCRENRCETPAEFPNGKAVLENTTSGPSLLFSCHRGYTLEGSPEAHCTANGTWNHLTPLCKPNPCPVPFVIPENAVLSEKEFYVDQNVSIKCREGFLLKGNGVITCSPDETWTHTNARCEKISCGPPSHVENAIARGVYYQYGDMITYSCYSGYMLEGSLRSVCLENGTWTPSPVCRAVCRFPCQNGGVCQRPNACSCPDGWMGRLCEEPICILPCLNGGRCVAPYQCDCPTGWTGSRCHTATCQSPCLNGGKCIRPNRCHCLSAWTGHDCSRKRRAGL

Tests used:
[1] = molecular target: T1, Pearl 1ECD-Bio-His (biotinylated Pearl 1 ecto-domain, plasmid pTT3-Pearl 1-bio-His) (UniProt Q5VY43); assay: co-immunoprecipitation of purified proteins, biotinylated Pearl 1 detected with fluorescent streptavidin (FIG. 50A)
T1 sequence (biotinylated by co-transfected secreted BirA (site not printed), looked up): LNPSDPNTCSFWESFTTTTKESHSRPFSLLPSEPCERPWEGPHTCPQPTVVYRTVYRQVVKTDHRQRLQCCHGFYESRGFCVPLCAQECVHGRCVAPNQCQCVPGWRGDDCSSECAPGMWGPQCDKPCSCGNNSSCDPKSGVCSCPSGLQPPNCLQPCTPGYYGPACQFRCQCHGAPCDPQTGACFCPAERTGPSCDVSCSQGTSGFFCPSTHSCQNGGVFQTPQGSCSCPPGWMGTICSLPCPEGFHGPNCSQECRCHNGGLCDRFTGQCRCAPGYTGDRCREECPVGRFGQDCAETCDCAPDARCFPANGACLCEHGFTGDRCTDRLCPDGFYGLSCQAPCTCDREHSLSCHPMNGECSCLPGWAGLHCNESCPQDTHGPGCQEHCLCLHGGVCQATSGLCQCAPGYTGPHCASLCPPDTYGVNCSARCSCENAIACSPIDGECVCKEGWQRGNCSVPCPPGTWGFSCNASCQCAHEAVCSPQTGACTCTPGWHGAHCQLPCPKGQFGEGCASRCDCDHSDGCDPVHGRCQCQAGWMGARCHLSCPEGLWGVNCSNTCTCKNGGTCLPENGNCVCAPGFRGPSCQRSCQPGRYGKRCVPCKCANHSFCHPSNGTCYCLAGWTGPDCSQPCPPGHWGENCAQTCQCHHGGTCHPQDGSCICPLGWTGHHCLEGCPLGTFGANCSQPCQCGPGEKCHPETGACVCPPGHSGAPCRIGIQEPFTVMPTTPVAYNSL

[2] = molecular target: Fibronectin from enriched murine VSMC media (mouse) (UniProt P11276); assay: co-immunoprecipitation of SVEP1-Myc with anti-Myc beads from enriched murine VSMC media, immunoblot for Fibronectin (FIG. 50C)
[3] = molecular target: Fibronectin from enriched murine VSMC media (mouse) (UniProt P11276); assay: affinity (SVEP1-Myc pulldown) and proximity (SVEP1-mTID biotin labelling) proteomics in enriched murine VSMC media, enrichment at P<0.10 in every experiment

- binding [1]: binds
- binding [2]: binds
- binding [3]: binds
Substance: recombinant, Myc-tagged SVEP1 (murine Svep1-myc-His10 construct) (from UniProt A2AVA0 18-3567) (ligand)
